Measured values taken from patent US4524135A.
Some results were stated once for a whole list of compounds, not compound by compound.

Test system: Saccharomyces cerevisiae ATCC 2366, Neurospora crassa, Candida albicans, Trichophyton mentagrophytes, Proteus vulgaris ATCC 9484, Salmonella gallinarum …
Test: Agar-plate disc-diffusion test, further organisms
Assay type: cell-based
Conditions: at the levels tested (Table I tests)

| Structure (SMILES) | Activity in disc-diffusion test against further organisms |
| --- | --- |
| CCCCCCCCCC(=O)N[C@@H](Cc1c[nH]c2ccccc12)C(=O)N[C@@H](CC(N)=O)C(=O)N[C@@H](CC(=O)O)C(=O)N[C@@H]1C(=O)NCC(=O)N[C@@H](CCCN)C(=O)N[C@@H](CC(=O)O)C(=O)N[C@H](C)C(=O)N[C@@H](CC(=O)O)C(=O)NCC(=O)N[C@H](CO)C(=O)N[C@@H]([C@H](C)CC(=O)O)C(=O)N[C@@H](CC(=O)c2ccccc2N)C(=O)O[C@@H]1C [Example 6] | did not show activity |
| CCCCCCCCCC(=O)N[C@@H](Cc1ccccc1)C(=O)N[C@@H](Cc1c[nH]c2ccccc12)C(=O)N[C@@H](CC(N)=O)C(=O)N[C@@H](CC(=O)O)C(=O)N[C@@H]1C(=O)NCC(=O)N[C@@H](CCCN)C(=O)N[C@@H](CC(=O)O)C(=O)N[C@H](C)C(=O)N[C@@H](CC(=O)O)C(=O)NCC(=O)N[C@H](CO)C(=O)N[C@@H]([C@H](C)CC(=O)O)C(=O)N[C@@H](CC(=O)c2ccccc2N)C(=O)O[C@@H]1C [Example 7, NTrp-[N-(n-Decanoyl)-L-phenylalanyl]-A-21978C Nucleus] | did not show activity |
| CCCCCCCCCCCCOc1ccc(C(=O)N[C@@H](Cc2c[nH]c3ccccc23)C(=O)N[C@H](CC(N)=O)C(=O)N[C@@H](CC(=O)O)C(=O)N[C@@H]2C(=O)NCC(=O)N[C@@H](CCCN)C(=O)N[C@@H](CC(=O)O)C(=O)N[C@H](C)C(=O)N[C@@H](CC(=O)O)C(=O)NCC(=O)N[C@H](CO)C(=O)N[C@@H]([C@H](C)CC(=O)O)C(=O)N[C@@H](CC(=O)c3ccccc3N)C(=O)O[C@@H]2C)cc1 [Example 8, NTrp -p-(n-dodecyloxy)benzoyl-A-21978C Nucleus] | did not show activity |
